Results reported in paper PMC3169597.
Positions count from the first letter of the chain named. Results are given in words; binding and its absence hold for the method and conditions named. Binding seen in cells or lysates may run through a third protein. These calls come from enrichment with a bait or labelling near it, and not all partners need be listed. For part of these data: A no says only that the protein was not detected with the bait. Where a sequence is shown, tags or fusion partners need not be part of it.

Assays:
Test in all cases: affinity purification with mass spectrometry
[1] = biological target: T1, FLAG-tagged mGBP1 wild-type protein (murine guanylate-binding protein 1) (mouse) (UniProt Q01514)
T1 sequence: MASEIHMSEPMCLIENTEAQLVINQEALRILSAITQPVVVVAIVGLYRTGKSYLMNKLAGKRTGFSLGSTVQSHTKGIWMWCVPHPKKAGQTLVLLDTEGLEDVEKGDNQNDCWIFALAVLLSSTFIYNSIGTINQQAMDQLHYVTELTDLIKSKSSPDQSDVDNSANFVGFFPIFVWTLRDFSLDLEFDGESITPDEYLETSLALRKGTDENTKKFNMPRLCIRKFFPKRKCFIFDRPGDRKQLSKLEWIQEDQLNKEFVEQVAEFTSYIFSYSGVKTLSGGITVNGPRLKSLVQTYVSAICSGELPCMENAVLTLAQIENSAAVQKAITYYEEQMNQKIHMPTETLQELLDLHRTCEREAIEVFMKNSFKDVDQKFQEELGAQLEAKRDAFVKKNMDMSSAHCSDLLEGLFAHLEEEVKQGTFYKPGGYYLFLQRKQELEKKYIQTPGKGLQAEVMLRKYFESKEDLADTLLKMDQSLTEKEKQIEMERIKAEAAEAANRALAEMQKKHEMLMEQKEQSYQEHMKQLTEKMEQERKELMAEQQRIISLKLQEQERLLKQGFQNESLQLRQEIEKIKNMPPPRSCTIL

FLAG-mGBP1(K51A) (mouse) = biological target: T2, FLAG-mGBP1(K51A) (mouse) (UniProt Q01514)
T2 sequence: T1 sequence with K51A

FLAG-mGBP1(R48A) (mouse) = biological target: T3, FLAG-mGBP1(R48A) (mouse) (UniProt Q01514)
T3 sequence: T1 sequence with R48A

B1: mGBP2 (endogenous, found by MS/MS) (protein, UniProt Q9Z0E6 1-589)
chain: MASEIHMSEPMCLIENTEAQLVINQEALRILSAITQPVVVVAIVGLYRTGKSYLMNKLAGKRTGFSLGSTVQSHTKGIWMWCVPHPKKAGQTLVLLDTEGLEDVEKGDNQNDCWIFALAVLLSSTFIYNSIGTINQQAMDQLHYVTELTDLIKSKSSPDQSGVDDSANFVGFFPTFVWTLRDFSLELEVNGKPVTSDEYLEHSLTLKKGADKKTKSFNEPRLCIRKFFPKRKCFIFDRPAQRKQLSKLETLREEELCGEFVEQVAEFTSYILSYSSVKTLCGGIIVNGPRLKSLVQTYVGAISNGSLPCMESAVLTLAQIENSAAVQKAITHYEEQMNQKIQMPTETLQELLDLHRPIESEAIEVFLKNSFKDVDQKFQTELGNLLVAKRDAFIKKNMDVSSARCSDLLEDIFGPLEEEVKLGTFSKPGGYYLFLQMRQELEKKYNQAPGKGLQAEAMLKNYFDSKADVVETLLQTDQSLTEAAKEVEEERTKAEAAEAANRELEKKQKEFELMMQQKEKSYQEHVKKLTEKMKDEQKQLLAEQENIIAAKLREQEKFLKEGFENESKKLIREIDTLKQNKSSGKCTIL
binding [1]: binds
binding (FLAG-mGBP1(K51A) (mouse)): no binding
binding (FLAG-mGBP1(R48A) (mouse)): binds

B2: mGBP4 (endogenous, found by MS/MS) (protein, UniProt A4UUI3 1-631)
chain: MTQPQMAPICLVENHNEQLSVNQEAIEILDKISQPVVVVAIVGWSHTGKSYLMNCLAGQNHVSGTLPTSQRFPSGLHRAVSDQGHLDVVHAPPHQARALVLLDTEGLGDVEKGDPKNDLWIFALSVLLSSTFVYNSMNTINHQALEQLHYVTELTELIRAKSSPNPHGIKNSTEFVSFFPDFVWTVRDFMLELKLNGEDITSDEYLENALKLIPGNNPRIQASNSARECIRRFFPNRKCFVFEWPTHDIELIKQLETISEDQLDPTFKESAMAFASYIFTYAKIKTLREGIKVTGNGLGTLVTTYVDAINSGAVPCLDDAVTTLAQRENSVAVQKAASHYSEQMAQRLSLPTDTIQELLDVHAACEKEAMAVFMEHSFKDENQQFLKKLVELLREKNGLFLLKNEEASDKYCQEELDRLSKDLMDNISTFSVPGGHRLYMDMREKIEHDYWQVPRKGVKASEVFQNFLQSQAIIESSILQADTALTAGQKAIAEKHTKKEAAEKEQDLLRQKQKEHQEYMEAQEKRNKENLEQLRRKLEQEREQLIKDHNMMLEKLTKEQKTFREEGYKTQAEELRREIHQLGHNIKEMKQNGDSLVESILRSWFSFISPPSESEKAISSVLSLLRKKDRL
binding [1]: binds
binding (FLAG-mGBP1(K51A) (mouse)): no binding
binding (FLAG-mGBP1(R48A) (mouse)): binds

B3: mGBP5 (endogenous, found by MS/MS) (protein, UniProt Q8CFB4 1-590)
chain: MAPEIHMPEPLCLIGSTEGHLVTNQEALKILSAITQPVVVVAIVGLYRTGKSYLMNKLAGKEKGFSVGSTVQSHTKGIWMWCVPHPQKPDHTLVLLDTEGLGDVEKDDKKNDTQIFALAILLSSTFVYNTMNKIDQGAIDLLHNVTELTDLLRTRNSSDSNQTEGEGPADMSFFPDLVWTLRDFFLDLQANGHAITSDEYLENSLKLKQGSDERTQTFNLPRLCIQKFFPVKKCFVFDAPALGSKLSQLPTLSNEELNSDFVQDLSEFCSHIFTQSKTKTLPGGIQVNGPRLESLVLTYVDAINSGALPSIENTVVTLARRENSAAVQKAIGHYDQLMSEKVQLPTETLQELLDLHRTCEREAIEIFRKHSFKDEGEFFQKELESLLSAKQDEICKKNADASAALCSTLLGSIFKPLEQEVAQEFYHKPGGHKLFLQRMEQLKANYRQQPGKGTQAEEVLQTYLNAKETVSRTILQTDQVLTDKEIQSKAEQERAEAARLEAQRLEAIRIQEEQRKAEMERQHQEQLRQIALEKARVAQEQQWILKQRAQEEADRIKAEQEAQLRALQQQLQHMREMNHHRRHHHDCVIS
binding [1]: binds
binding (FLAG-mGBP1(K51A) (mouse)): no binding
binding (FLAG-mGBP1(R48A) (mouse)): binds
